Test system: A17λ reactibody (FabA17λ)
Type: biochemical, human

With “p-nitrophenyl 8-methyl-8-azabicyclo[3.2.1]octylphenylphosphonate [phosphonate X]” the “ΔS, phosphonate X” value was 7.6 1.8 calmol^1 K^1.

From PMC3949517 (Acta Crystallographica Section D: Biological Crystallography, 2014)
